The entries are a selection whose mix differs from that of the whole data set. For part of these data: At the low end of the ranking, values are background and their order means little. Some of the results follow. For part of these data: The source does not settle which construct or isoform was used.
Tests used:
ETS1 = target: T1, ETS1 (UniProt P14921); test: DAPPL (digital affinity profiling via proximity ligation, sequencing); conditions: 10 mM Tris-HCl pH 7.5, 50 mM NaCl, 1 mM DTT, 4% glycerol, room temperature, 30 min; GST-TFs on glutathione beads, 16-mer random dsDNA library, 0.1% …; high values mean tight binding; double strand, one strand shown; scale: fold enrichment (6-mer frequency, TF over GST control)
T1 sequence: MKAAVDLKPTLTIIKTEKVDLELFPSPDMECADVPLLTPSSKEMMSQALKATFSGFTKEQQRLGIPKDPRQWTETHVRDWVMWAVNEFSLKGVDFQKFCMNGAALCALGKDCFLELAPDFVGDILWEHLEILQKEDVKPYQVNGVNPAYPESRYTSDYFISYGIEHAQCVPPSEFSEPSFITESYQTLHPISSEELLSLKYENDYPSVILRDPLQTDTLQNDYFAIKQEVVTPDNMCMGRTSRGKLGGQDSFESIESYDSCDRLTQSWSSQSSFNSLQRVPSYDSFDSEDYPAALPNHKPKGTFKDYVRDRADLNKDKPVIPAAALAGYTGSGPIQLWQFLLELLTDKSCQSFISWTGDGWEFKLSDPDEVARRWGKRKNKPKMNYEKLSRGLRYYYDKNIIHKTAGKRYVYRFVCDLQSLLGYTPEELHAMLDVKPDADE

SPDEF = target: T2, SPDEF (UniProt O95238); test: as above; conditions: 10 mM Tris-HCl pH 7.5, 50 mM NaCl, 1 mM DTT, 4% glycerol, room temperature, 30 min; GST-TFs on glutathione beads, 16-mer random dsDNA library, 0.1% …; high values mean tight binding; double strand, one strand shown; scale: fold enrichment (6-mer frequency, TF over GST control)
T2 sequence: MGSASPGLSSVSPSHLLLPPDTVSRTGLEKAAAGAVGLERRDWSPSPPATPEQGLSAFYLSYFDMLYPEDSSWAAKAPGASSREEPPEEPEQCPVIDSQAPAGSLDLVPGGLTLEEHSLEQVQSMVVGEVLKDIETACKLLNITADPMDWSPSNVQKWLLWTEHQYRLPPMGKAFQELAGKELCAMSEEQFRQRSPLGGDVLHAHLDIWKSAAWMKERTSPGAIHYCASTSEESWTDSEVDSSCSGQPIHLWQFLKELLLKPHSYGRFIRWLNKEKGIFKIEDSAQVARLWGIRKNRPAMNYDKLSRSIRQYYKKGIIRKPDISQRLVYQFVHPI

GTGTTT
binding signal (ETS1): 1.19
binding signal (SPDEF): 1.22

CCCCAA
binding signal (ETS1): 1.21
binding signal (SPDEF): 1.11

ATGGGG
binding signal (ETS1): 1.14
binding signal (SPDEF): 0.916

CTGGGC
binding signal (ETS1): 1.14
binding signal (SPDEF): 1

CAATGG
binding signal (ETS1): 1.05
binding signal (SPDEF): 0.895

CTCACA
binding signal (ETS1): 1.38
binding signal (SPDEF): 1.33

GCCGAT
binding signal (ETS1): 1.06
binding signal (SPDEF): 0.96

TCGCCG
binding signal (ETS1): 1.16
binding signal (SPDEF): 1.01

CCGTTT
binding signal (ETS1): 1.28
binding signal (SPDEF): 1.57

ACAGCA
binding signal (ETS1): 0.961
binding signal (SPDEF): 0.984

CTTGAA
binding signal (ETS1): 1.1
binding signal (SPDEF): 1.13

TTTCAA
binding signal (ETS1): 1.28
binding signal (SPDEF): 1.16

TATGTC
binding signal (ETS1): 1.11
binding signal (SPDEF): 1.14

TTGCTC
binding signal (ETS1): 1.24
binding signal (SPDEF): 1.2

TGGCGA
binding signal (ETS1): 1.01
binding signal (SPDEF): 0.973

TAGACT
binding signal (ETS1): 1.04
binding signal (SPDEF): 0.966

ATAGTC
binding signal (ETS1): 0.901
binding signal (SPDEF): 0.864

CCGCAT
binding signal (ETS1): 1.6
binding signal (SPDEF): 1.64

CATGCG
binding signal (ETS1): 0.942
binding signal (SPDEF): 1.01

CTCCAA
binding signal (ETS1): 1.34
binding signal (SPDEF): 1.33

TCTCGT
binding signal (ETS1): 1.32
binding signal (SPDEF): 1.15

TCAAAT
binding signal (ETS1): 1.05
binding signal (SPDEF): 1.11

TGAAAT
binding signal (ETS1): 1.03
binding signal (SPDEF): 0.976

GCTAGA
binding signal (ETS1): 1.03
binding signal (SPDEF): 0.979

CGCCAA
binding signal (ETS1): 1.03
binding signal (SPDEF): 0.978

CGAATG
binding signal (ETS1): 1.02
binding signal (SPDEF): 0.992

CAAGAA
binding signal (ETS1): 1.12
binding signal (SPDEF): 1.06

AAACGA
binding signal (ETS1): 1.11
binding signal (SPDEF): 1.03

TCAGCT
binding signal (ETS1): 1.02
binding signal (SPDEF): 0.99

AACGCG
binding signal (ETS1): 0.952
binding signal (SPDEF): 0.996

CGCGTT
binding signal (ETS1): 1.12
binding signal (SPDEF): 0.865

TAAGCA
binding signal (ETS1): 1.01
binding signal (SPDEF): 1.06

GTTGGT
binding signal (ETS1): 0.84
binding signal (SPDEF): 0.935

CTCTCC
binding signal (ETS1): 1.41
binding signal (SPDEF): 1.22

ATGCGA
binding signal (ETS1): 1.24
binding signal (SPDEF): 1.18

GAAGTA
binding signal (ETS1): 1.84
binding signal (SPDEF): 2.1

CCTCGG
binding signal (ETS1): 1.17
binding signal (SPDEF): 1.04

CCTCAG
binding signal (ETS1): 1.25
binding signal (SPDEF): 1.1

ATTGCA
binding signal (ETS1): 1.16
binding signal (SPDEF): 1.18

CTTCTC
binding signal (ETS1): 1.44
binding signal (SPDEF): 1.33

CATTTT
binding signal (ETS1): 1.31
binding signal (SPDEF): 1.06

TGCCCC
binding signal (ETS1): 1.25
binding signal (SPDEF): 1.21

CACCCA
binding signal (ETS1): 1.12
binding signal (SPDEF): 0.995

TGGCAC
binding signal (ETS1): 1.23
binding signal (SPDEF): 1.12

CAAAGC
binding signal (ETS1): 1.1
binding signal (SPDEF): 1.06

CACTAT
binding signal (ETS1): 1.21
binding signal (SPDEF): 1.18

GCCCTC
binding signal (ETS1): 1.16
binding signal (SPDEF): 1.08

CTCACC
binding signal (ETS1): 1.13
binding signal (SPDEF): 1.12

TTGGAA
binding signal (ETS1): 0.976
binding signal (SPDEF): 0.958

CACGCA
binding signal (ETS1): 1.09
binding signal (SPDEF): 0.989

CAAAAG
binding signal (ETS1): 0.97
binding signal (SPDEF): 0.965

ATGGCA
binding signal (ETS1): 1.32
binding signal (SPDEF): 1.1

ACACAT
binding signal (ETS1): 1.27
binding signal (SPDEF): 1.31

TTGAGG
binding signal (ETS1): 1.03
binding signal (SPDEF): 0.997

AGAGCT
binding signal (ETS1): 0.911
binding signal (SPDEF): 0.877

TCTTTC
binding signal (ETS1): 1.29
binding signal (SPDEF): 1.44

TTTATC
binding signal (ETS1): 1.29
binding signal (SPDEF): 1.25

TTGGCG
binding signal (ETS1): 1.05
binding signal (SPDEF): 0.952

CGCCCA
binding signal (ETS1): 1.04
binding signal (SPDEF): 0.956

TCACCG
binding signal (ETS1): 1.06
binding signal (SPDEF): 0.977

TCGACG
binding signal (ETS1): 0.981
binding signal (SPDEF): 1.05

GACTGC
binding signal (ETS1): 0.944
binding signal (SPDEF): 0.857

CCACAT
binding signal (ETS1): 1.24
binding signal (SPDEF): 1.22

CGTAAC
binding signal (ETS1): 1.15
binding signal (SPDEF): 1.17

CAGCTA
binding signal (ETS1): 1.05
binding signal (SPDEF): 0.881

ACGAAT
binding signal (ETS1): 1.11
binding signal (SPDEF): 1.13

GCCTCT
binding signal (ETS1): 1.41
binding signal (SPDEF): 1.3

AGCAAT
binding signal (ETS1): 1.05
binding signal (SPDEF): 1.04

CTTATA
binding signal (ETS1): 1.45
binding signal (SPDEF): 1.51

ATGCTA
binding signal (ETS1): 1.34
binding signal (SPDEF): 1.23

GCTTAA
binding signal (ETS1): 0.969
binding signal (SPDEF): 1.06

AAGCCC
binding signal (ETS1): 1.14
binding signal (SPDEF): 0.966

CATGAC
binding signal (ETS1): 1.17
binding signal (SPDEF): 1.2

GAAAAA
binding signal (ETS1): 1.21
binding signal (SPDEF): 0.988

TGACTG
binding signal (ETS1): 1.03
binding signal (SPDEF): 1.05

TCACCA
binding signal (ETS1): 1.1
binding signal (SPDEF): 1.13

ACTATA
binding signal (ETS1): 1.34
binding signal (SPDEF): 1.42

TACGCG
binding signal (ETS1): 1.1
binding signal (SPDEF): 1.23

TTGTGC
binding signal (ETS1): 1.16
binding signal (SPDEF): 1.15

CATCGC
binding signal (ETS1): 1.12
binding signal (SPDEF): 0.992

ACCTTC
binding signal (ETS1): 1.9
binding signal (SPDEF): 2.02

GCGCGC
binding signal (ETS1): 1.07
binding signal (SPDEF): 0.817

AGTGGT
binding signal (ETS1): 1.09
binding signal (SPDEF): 0.887

ATGTTA
binding signal (ETS1): 1.29
binding signal (SPDEF): 1.26

CACACC
binding signal (ETS1): 1.05
binding signal (SPDEF): 1.02

CCCTGA
binding signal (ETS1): 1.01
binding signal (SPDEF): 0.946

ATAATC
binding signal (ETS1): 1.15
binding signal (SPDEF): 1.17

TGGGTA
binding signal (ETS1): 1.1
binding signal (SPDEF): 0.967

CGTTTG
binding signal (ETS1): 1.1
binding signal (SPDEF): 1.01

TGAGCT
binding signal (ETS1): 1
binding signal (SPDEF): 0.99

CACTGA
binding signal (ETS1): 1.07
binding signal (SPDEF): 0.936

TGATAA
binding signal (ETS1): 0.987
binding signal (SPDEF): 0.976

TGCTGG
binding signal (ETS1): 1.01
binding signal (SPDEF): 1.15

TCCGCT
binding signal (ETS1): 2.17
binding signal (SPDEF): 2.51

CGCGTA
binding signal (ETS1): 0.991
binding signal (SPDEF): 0.892

GACTTT
binding signal (ETS1): 1.21
binding signal (SPDEF): 0.989

AAAGGC
binding signal (ETS1): 0.934
binding signal (SPDEF): 0.882

TTAGGC
binding signal (ETS1): 0.865
binding signal (SPDEF): 0.996

AACTGA
binding signal (ETS1): 1.22
binding signal (SPDEF): 0.995

CAACGA
binding signal (ETS1): 1.02
binding signal (SPDEF): 1.01

TCTGGT
binding signal (ETS1): 1.31
binding signal (SPDEF): 1.28

CCTCCG
binding signal (ETS1): 1.31
binding signal (SPDEF): 1.36

CCCAAG
binding signal (ETS1): 0.966
binding signal (SPDEF): 0.924

CATTGA
binding signal (ETS1): 0.956
binding signal (SPDEF): 0.881

CCCACC
binding signal (ETS1): 1.27
binding signal (SPDEF): 1.12

CCAAAG
binding signal (ETS1): 0.888
binding signal (SPDEF): 0.894

AGCTGC
binding signal (ETS1): 0.989
binding signal (SPDEF): 0.98

ATAGCG
binding signal (ETS1): 0.927
binding signal (SPDEF): 0.899

TGTCAA
binding signal (ETS1): 1.06
binding signal (SPDEF): 0.955

ATGAAG
binding signal (ETS1): 1.04
binding signal (SPDEF): 1.07

ACTATC
binding signal (ETS1): 1.19
binding signal (SPDEF): 1.18

GCAAAC
binding signal (ETS1): 0.994
binding signal (SPDEF): 0.968

TATCCA
binding signal (ETS1): 1.31
binding signal (SPDEF): 1.21

TGCCAC
binding signal (ETS1): 1.23
binding signal (SPDEF): 1.15

TGCAAG
binding signal (ETS1): 1.03
binding signal (SPDEF): 1.11

ATAGGC
binding signal (ETS1): 0.953
binding signal (SPDEF): 0.976

TACCGG
binding signal (ETS1): 1.52
binding signal (SPDEF): 1.77

GTATCT
binding signal (ETS1): 1.11
binding signal (SPDEF): 1.14

ATGTGG
binding signal (ETS1): 1.11
binding signal (SPDEF): 1.05

ACCGCC
binding signal (ETS1): 1.39
binding signal (SPDEF): 1.29

Reference: publication PMC7862700
